These results are taken from patent publication US20170368132A1 (published 2017).

No constants are given. Whether binding was seen depends on the method and setting. For some of these results: A result given as binding can be weak or reduced; the word gives no strength.

What all share (assay): yeast two-hybrid, growth on -ADE -HIS
Test [1] deals with K. pastoris Rad51 (K. pastoris).
The target in test [2] is D. rerio Rad51 (D. rerio).
Test [3] addresses K. lactis Rad51 (K. lactis).
Test [4] addresses C. albicans Rad51 (C. albicans).

B1: compound 5 peptide sequence (SEQ ID NO.:5) (peptide)
peptide: KRRRRRRRKRLGVRLRVSRML
For the molecule B1, the binding result is “binds” in test [1], “binds” in test [2], “no binding” in test [3] and “binds” in test [4].
